# Experimental data reported in the supplement of paper PMC8728848.
# This is one part of the list.
# B1: Epa21 (Candida glabrata) (protein)
# chain: MGSSHHHHHHSSGLVPRGSHMASTPNIESHPQGCSPVDTSGIKPGLKMDLYRFPITPPGTGCWSWDWLTVTPDFPRSGYWKWPKIAEVDGVVGPLHLDSGHPTCDPLTSVLPHGFNYLQSITTTNFTMVLHGYFVPKQSGKYTFEFKADDALLLNLGAGNAFSCCDYNNSQYNQGEYLAYAIWSKNNQTATLYLEKGIYYPIRVFYHNRCCGAYMDVVYYFNDSPIPNRDFSGLLFSIPDSDSCDANI
# Experiments:
# Assay in all cases: glycan array binding signal (z-score within array); higher = stronger binding
# Conditions in all cases: glycan notation: IUPAC condensed, linker removed
# [1] = molecular target: Gal(a1-3)Gal
# Summary of the method: (§1)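 Arrays were curated from the Consortium for Functional Glycomics database, 3228 in total, and kept only where the protein sequence was available. Binding is expressed as a within-array Z-score. This score was averaged across arrays of the same protein sequence at different concentrations or buffers and across linkers, and negative values can be read as non-binding.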
# [2] = molecular target: Gal(a1-3)Gal(b1-3)GlcNAc
# Summary of the method: as §1
# [3] = molecular target: Gal(a1-3)Gal(b1-3)GlcNAc(b1-2)Man
# Summary of the method: as §1
# [4] = molecular target: Gal(a1-3)Gal(b1-3)GlcNAc(b1-2)Man(a1-3)[Gal(a1-3)Gal(b1-3)GlcNAc(b1-2)Man(a1-6)]Man(b1-4)GlcNAc(b1-4)GlcNAc
# Summary of the method: as §1
# [5] = molecular target: Gal(a1-3)Gal(b1-3)GlcNAc(b1-3)GalNAc
# Summary of the method: as §1
# [6] = molecular target: Gal(a1-3)Gal(b1-3)GlcNAc(b1-6)GalNAc
# Summary of the method: as §1
# [7] = molecular target: Gal(a1-3)Gal(b1-3)[Fuc(a1-4)]GlcNAc(b1-2)Man(a1-3)[Gal(a1-3)Gal(b1-3)[Fuc(a1-4)]GlcNAc(b1-2)Man(a1-6)]Man(b1-4)GlcNAc(b1-4)GlcNAc
# Summary of the method: as §1
# [8] = molecular target: Gal(a1-3)Gal(b1-4)Glc
# Summary of the method: as §1
# [9] = molecular target: Gal(a1-3)Gal(b1-4)GlcNAc
# Summary of the method: as §1
# [10] = molecular target: Gal(a1-3)Gal(b1-4)GlcNAc(b1-2)Man
# Summary of the method: as §1
# [11] = molecular target: Gal(a1-3)Gal(b1-4)GlcNAc(b1-2)Man(a1-3)[Gal(a1-3)Gal(b1-4)GlcNAc(b1-2)Man(a1-6)]Man(b1-4)GlcNAc(b1-4)GlcNAc
# Summary of the method: as §1
# [12] = molecular target: Gal(a1-3)Gal(b1-4)GlcNAc(b1-3)GalNAc
# Summary of the method: as §1
# [13] = molecular target: Gal(a1-3)Gal(b1-4)GlcNAc(b1-6)GalNAc
# Summary of the method: as §1
# [14] = molecular target: Gal(a1-3)Gal(b1-4)[Fuc(a1-3)]GlcNAc
# Summary of the method: as §1
# [15] = molecular target: Gal(a1-3)Gal(b1-4)[Fuc(a1-3)]GlcNAc(b1-2)Man(a1-3)[Gal(a1-3)Gal(b1-4)[Fuc(a1-3)]GlcNAc(b1-2)Man(a1-6)]Man(b1-4)GlcNAc(b1-4)GlcNAc
# Summary of the method: as §1
# [16] = molecular target: Gal(a1-3)GalNAc
# Summary of the method: as §1
# [17] = molecular target: Gal(a1-3)[Gal(a1-4)]Gal(b1-4)GlcNAc
# Summary of the method: as §1
# [18] = molecular target: Gal(a1-4)Gal(b1-3)GlcNAc(b1-2)Man(a1-3)[Gal(a1-4)Gal(b1-3)GlcNAc(b1-2)Man(a1-6)]Man(b1-4)GlcNAc(b1-4)GlcNAc
# Summary of the method: as §1
# [19] = molecular target: Gal(a1-4)Gal(b1-4)Glc
# Summary of the method: as §1
# [20] = molecular target: Gal(a1-4)Gal(b1-4)GlcNAc
# Summary of the method: as §1
# [21] = molecular target: Gal(a1-4)Gal(b1-4)GlcNAc(b1-2)Man(a1-3)[Gal(a1-4)Gal(b1-4)GlcNAc(b1-2)Man(a1-6)]Man(b1-4)GlcNAc(b1-4)GlcNAc
# Summary of the method: as §1
# [22] = molecular target: Gal(a1-4)Gal(b1-4)GlcNAc(b1-3)Gal(b1-4)Glc
# Summary of the method: as §1
# [23] = molecular target: Gal(a1-4)GlcNAc
# Summary of the method: as §1
# [24] = molecular target: Gal(a1-6)Glc
# Summary of the method: as §1
# [25] = molecular target: Gal(b1-2)Gal
# Summary of the method: as §1
# [26] = molecular target: Gal(b1-3)Gal
# Summary of the method: as §1
# [27] = molecular target: Gal(b1-3)Gal(b1-4)GlcNAc
# Summary of the method: as §1
# [28] = molecular target: Gal(b1-3)GalNAc
# Summary of the method: as §1
# [29] = molecular target: Gal(b1-3)GalNAc(a1-3)[Fuc(a1-2)]Gal(b1-4)Glc
# Summary of the method: as §1
# [30] = molecular target: Gal(b1-3)GalNAc(a1-3)[Fuc(a1-2)]Gal(b1-4)GlcNAc
# Summary of the method: as §1
# [31] = molecular target: Gal(b1-3)GalNAc(b1-3)Gal
# Summary of the method: as §1
# [32] = molecular target: Gal(b1-3)GalNAc(b1-3)Gal(a1-4)Gal(b1-4)Glc
# Summary of the method: as §1
# [33] = molecular target: Gal(b1-3)GalNAc(b1-4)Gal(b1-4)Glc
# Summary of the method: as §1
# [34] = molecular target: Gal(b1-3)GalNAc(b1-4)[Neu5Ac(a2-3)]Gal(b1-4)Glc
# Summary of the method: as §1
# [35] = molecular target: Gal(b1-3)GlcNAc
# Summary of the method: as §1
# [36] = molecular target: Gal(b1-3)GlcNAc(a1-3)Gal(b1-4)GlcNAc
# Summary of the method: as §1
# [37] = molecular target: Gal(b1-3)GlcNAc(a1-6)Gal(b1-4)GlcNAc
# Summary of the method: as §1
# [38] = molecular target: Gal(b1-3)GlcNAc(b1-2)Man
# Summary of the method: as §1
binder,measurement,setting,value
B1,glycan array binding signal (z-score),[1],1.27
same,glycan array binding signal (z-score),[2],0.087
same,glycan array binding signal (z-score),[3],1
same,glycan array binding signal (z-score),[4],0.663
same,glycan array binding signal (z-score),[5],-0.207
same,glycan array binding signal (z-score),[6],0.392
same,glycan array binding signal (z-score),[7],0.725
same,glycan array binding signal (z-score),[8],-0.176
same,glycan array binding signal (z-score),[9],0.097
same,glycan array binding signal (z-score),[10],-0.08
same,glycan array binding signal (z-score),[11],-0.121
same,glycan array binding signal (z-score),[12],1.03
same,glycan array binding signal (z-score),[13],0.619
same,glycan array binding signal (z-score),[14],-0.746
same,glycan array binding signal (z-score),[15],0.829
same,glycan array binding signal (z-score),[16],-0.135
same,glycan array binding signal (z-score),[17],-0.15
same,glycan array binding signal (z-score),[18],0.367
same,glycan array binding signal (z-score),[19],1.49
same,glycan array binding signal (z-score),[20],1.15
same,glycan array binding signal (z-score),[21],-0.322
same,glycan array binding signal (z-score),[22],0.153
same,glycan array binding signal (z-score),[23],4.26
same,glycan array binding signal (z-score),[24],0.468
same,glycan array binding signal (z-score),[25],-0.085
same,glycan array binding signal (z-score),[26],0.163
same,glycan array binding signal (z-score),[27],0.402
same,glycan array binding signal (z-score),[28],-0.234
same,glycan array binding signal (z-score),[29],-0.135
same,glycan array binding signal (z-score),[30],0.156
same,glycan array binding signal (z-score),[31],0.272
same,glycan array binding signal (z-score),[32],0.455
same,glycan array binding signal (z-score),[33],1.08
same,glycan array binding signal (z-score),[34],0.156
same,glycan array binding signal (z-score),[35],-0.83
same,glycan array binding signal (z-score),[36],-0.37
same,glycan array binding signal (z-score),[37],-0.138
same,glycan array binding signal (z-score),[38],-0.23

# Exported with tabs: entries from further up.
binder	measurement	setting	value
B1	glycan array binding signal (z-score)	[4]	0.663
same	glycan array binding signal (z-score)	[5]	-0.207
